No constants are given. Whether binding was seen depends on the method and setting. Binding seen in cells or lysates may run through a third protein. Some binding calls cover weakened binding; strength is not graded here.

Amino acid sequences for entries named in this document (tags omitted).
UniProt Q15797: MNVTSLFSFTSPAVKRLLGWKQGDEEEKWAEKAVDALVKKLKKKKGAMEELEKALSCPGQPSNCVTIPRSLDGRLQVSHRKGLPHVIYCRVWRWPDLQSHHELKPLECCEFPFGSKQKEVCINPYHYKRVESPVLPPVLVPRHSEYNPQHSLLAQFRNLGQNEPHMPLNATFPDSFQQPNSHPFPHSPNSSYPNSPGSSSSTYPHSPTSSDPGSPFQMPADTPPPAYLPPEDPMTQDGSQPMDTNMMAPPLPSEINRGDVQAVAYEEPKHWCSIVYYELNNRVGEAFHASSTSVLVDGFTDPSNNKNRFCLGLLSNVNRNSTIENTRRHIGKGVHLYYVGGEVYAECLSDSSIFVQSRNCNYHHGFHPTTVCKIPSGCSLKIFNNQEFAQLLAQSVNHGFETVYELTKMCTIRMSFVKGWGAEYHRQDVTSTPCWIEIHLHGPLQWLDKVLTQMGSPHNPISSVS
UniProt Q13485: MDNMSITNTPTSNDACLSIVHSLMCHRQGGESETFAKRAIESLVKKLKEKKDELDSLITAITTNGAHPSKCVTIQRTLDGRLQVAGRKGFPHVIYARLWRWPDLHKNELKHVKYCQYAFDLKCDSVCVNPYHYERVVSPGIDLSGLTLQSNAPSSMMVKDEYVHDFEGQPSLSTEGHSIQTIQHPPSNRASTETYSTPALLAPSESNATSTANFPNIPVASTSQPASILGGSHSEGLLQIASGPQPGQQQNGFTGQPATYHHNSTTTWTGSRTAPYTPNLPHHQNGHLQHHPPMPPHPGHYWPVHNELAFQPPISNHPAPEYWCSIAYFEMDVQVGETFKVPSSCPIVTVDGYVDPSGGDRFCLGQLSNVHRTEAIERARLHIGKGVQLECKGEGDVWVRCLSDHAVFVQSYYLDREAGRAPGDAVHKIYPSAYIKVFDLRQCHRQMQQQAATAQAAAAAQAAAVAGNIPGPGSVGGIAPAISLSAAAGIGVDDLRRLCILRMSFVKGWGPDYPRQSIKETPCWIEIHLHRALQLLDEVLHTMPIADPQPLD

This test concerns the target in vitro-translated, 35S-Met-labeled SMAD1 (UniProt Q15797). The test is described as follows: pull-down; same experiment as a2, lane with in vitro-translated Smad1 + Smad4 together on His-ZZ-Mab21l2 beads: Smad4 retained through Smad1.

With “in vitro-translated, 35S-Met-labeled SMAD4 (from UniProt Q13485 1-552)”, the binding result is recorded as “binds”.

The record behind these values is article PMC545073.
